These are yes or no findings as the source states them, for the method shown. Some binding calls cover weakened binding; strength is not graded here.
Key:
[1] = target: T1, HLA-E/… peptide complex (soluble, biotin-labeled) (human) (UniProt P13747+P61769); experiment: ELISA, immobilized antibody, soluble complex (FIG. 1A)
[2] = target: T2, HLA-E/… target on tumor cells (JEG-3 and JVM-2 cells, positive for HLA-E and HLA-G) (human) (UniProt P13747+P61769); experiment: flow cytometry on JEG-3 and JVM-2 cells, antibody at 1 ug/ml
[3] = target: T2, HLA-E/… target on tumor cells (JEG-3 and JVM-2 cells, positive for HLA-E and HLA-G) (human); experiment: flow cytometry on JEG-3 cells, goat anti-human IgG-APC (FIG. 3B)
[4] = target: T2, HLA-E/… target on tumor cells (JEG-3 and JVM-2 cells, positive for HLA-E and HLA-G) (human); experiment: flow cytometry on JVM-2 cells, goat anti-human IgG-APC (FIG. 4B)
[5] = target: T1, HLA-E/… peptide complex (soluble, biotin-labeled) (human); experiment: ELISA, biotin-labeled complex on neutravidin plates, soluble bivalent IgG1, anti-human-HRP
[6] = target: T1, HLA-E/… peptide complex (soluble, biotin-labeled) (human); experiment: validation of phage scFv clones after the third round of panning

Measured: binding

B1: MAB-031 (anti-HLA-E/…) (antibody, V domains shown)
VH: QVQLQQSGPELVKPGASVKMSCKASGYTFTDYVISWVKQRTGQGLEWIGEIYPGNNTTYYNDNFRGKATLTVDKSSSTAYMQLSSLTSEDSAVYYCARESLGIYYGSTYKGLYAMDYWGQGTTLTVSS
VL: QIVLTQSPAIMSASPGEKVTITCSASSSVSYMHWFQQKPGTSPKLWIYSTSNLASGVPARFSGSGSGTSYSLTISRMEAEDAATYYCQQRSSYPPTFGAGTKLELKR
notes: also called MAB31; MAB-31
binds: [1] | [2] | [3] | [4] | [5]

B2: scFv clone used to produce MAB-031 (scFv, V domains shown)
VH: QVQLQQSGPELVKPGASVKMSCKASGYTFTDYVISWVKQRTGQGLEWIGEIYPGNNTTYYNDNFRGKATLTVDKSSSTAYMQLSSLTSEDSAVYYCARESLGIYYGSTYKGLYAMDYWGQGTTLTVSS
VL: QIVLTQSPAIMSASPGEKVTITCSASSSVSYMHWFQQKPGTSPKLWIYSTSNLASGVPARFSGSGSGTSYSLTISRMEAEDAATYYCQQRSSYPPTFGAGTKLELKR
binds: [6]
